No constants are given. Whether binding was seen depends on the method and setting. Binding seen in cells or lysates may run through a third protein. Some results given as binding are weak or reduced against the parent protein; the word gives no strength. Tags and fused reporters may be left off the sequences shown.
Experiments:
Assay in all cases: pull-down
[1] = biological target: T1, His-tagged PPE26 (Rv1789) of Mycobacterium tuberculosis (Mycobacterium tuberculosis), Q79FK6; details: remark: other sources report otherwise
T1 chain: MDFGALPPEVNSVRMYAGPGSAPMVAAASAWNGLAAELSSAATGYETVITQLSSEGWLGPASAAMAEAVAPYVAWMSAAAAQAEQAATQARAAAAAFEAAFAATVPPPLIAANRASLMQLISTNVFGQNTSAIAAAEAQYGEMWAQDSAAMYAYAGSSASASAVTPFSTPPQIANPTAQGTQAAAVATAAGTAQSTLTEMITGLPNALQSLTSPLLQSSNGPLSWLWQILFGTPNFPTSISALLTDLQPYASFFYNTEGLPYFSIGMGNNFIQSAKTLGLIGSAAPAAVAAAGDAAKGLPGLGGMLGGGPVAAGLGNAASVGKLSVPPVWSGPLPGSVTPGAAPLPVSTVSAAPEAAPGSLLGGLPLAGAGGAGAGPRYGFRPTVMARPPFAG

By UniProt entry, the sequences of proteins in these tests, tags left out.
UniProt Q79FK5: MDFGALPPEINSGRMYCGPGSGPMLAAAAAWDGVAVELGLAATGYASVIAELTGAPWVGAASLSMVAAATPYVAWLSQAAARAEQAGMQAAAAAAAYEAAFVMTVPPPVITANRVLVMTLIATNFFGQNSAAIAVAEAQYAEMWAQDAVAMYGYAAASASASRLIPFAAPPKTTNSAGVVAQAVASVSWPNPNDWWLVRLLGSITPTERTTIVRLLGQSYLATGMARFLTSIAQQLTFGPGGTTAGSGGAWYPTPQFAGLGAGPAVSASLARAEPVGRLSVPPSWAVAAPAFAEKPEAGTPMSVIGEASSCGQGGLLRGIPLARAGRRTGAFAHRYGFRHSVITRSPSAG
UniProt P9WI13: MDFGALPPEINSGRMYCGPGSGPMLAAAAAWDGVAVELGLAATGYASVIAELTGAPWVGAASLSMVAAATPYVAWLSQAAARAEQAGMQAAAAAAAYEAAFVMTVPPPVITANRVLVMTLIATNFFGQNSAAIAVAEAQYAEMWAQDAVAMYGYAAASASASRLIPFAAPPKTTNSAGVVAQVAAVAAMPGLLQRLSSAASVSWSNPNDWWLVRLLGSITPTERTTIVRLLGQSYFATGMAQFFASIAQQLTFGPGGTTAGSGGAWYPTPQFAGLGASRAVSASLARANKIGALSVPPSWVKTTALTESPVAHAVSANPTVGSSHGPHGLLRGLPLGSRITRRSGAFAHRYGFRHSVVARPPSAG

[2] = biological target: His-tagged PPE27 (Rv1790) of Mycobacterium tuberculosis (Mycobacterium tuberculosis) (UniProt Q79FK5)
[3] = biological target: His-tagged PPE25 (Rv1787) of Mycobacterium tuberculosis (Mycobacterium tuberculosis) (UniProt P9WI13)
[4] = biological target: PE18 (Rv1788) of Mycobacterium tuberculosis, His-tagged and GST-tagged copies co-expressed (Mycobacterium tuberculosis) (UniProt L7N649)
[5] = biological target: PE19 (Rv1791) of Mycobacterium tuberculosis, His-tagged and GST-tagged copies co-expressed (Mycobacterium tuberculosis) (UniProt Q79FK4)

B1: GST-tagged PE18 (Rv1788) of Mycobacterium tuberculosis, L7N649 1-99 (protein)
chain: MSFVTTQPEALAAAAGSLQGIGSALNAQNAAAATPTTGVVPAAADEVSALTAAQFAAHAQIYQAVSAQAAAIHEMFVNTLQMSSGSYAATEAANAAAAG
How did the binding [1] turn out when B1 was run?
The binding was “binds”.

B2: GST-tagged PE18 (Rv1788) of Mycobacterium tuberculosis (protein, UniProt L7N649 1-99)
chain: MSFVTTQPEALAAAAGSLQGIGSALNAQNAAAATPTTGVVPAAADEVSALTAAQFAAHAQIYQAVSAQAAAIHEMFVNTLQMSSGSYAATEAANAAAAG
With B2 as the binder, how does the binding [2] read?
Its binding is “binds”.

B3: GST-tagged PE19 (Rv1791) of Mycobacterium tuberculosis (protein, UniProt Q79FK4 1-99)
chain: MSFVTTQPEALAAAAANLQGIGTTMNAQNAAAAAPTTGVVPAAADEVSALTAAQFAAHAQMYQTVSAQAAAIHEMFVNTLVASSGSYAATEAANAAAAG
B3 was tested. Which binding [3] did it give?
The binding was “binds”.

B4: PE18 (Rv1788) of Mycobacterium tuberculosis, His-tagged and GST-tagged copies co-expressed (protein, UniProt L7N649 1-99)
chain: MSFVTTQPEALAAAAGSLQGIGSALNAQNAAAATPTTGVVPAAADEVSALTAAQFAAHAQIYQAVSAQAAAIHEMFVNTLQMSSGSYAATEAANAAAAG
For B4, which binding [4] is on record?
Its binding is “binds”.

B5: PE19 (Rv1791) of Mycobacterium tuberculosis, His-tagged and GST-tagged copies co-expressed (protein, UniProt Q79FK4 1-99)
chain: MSFVTTQPEALAAAAANLQGIGTTMNAQNAAAAAPTTGVVPAAADEVSALTAAQFAAHAQMYQTVSAQAAAIHEMFVNTLVASSGSYAATEAANAAAAG
B5 was tested. Which binding [5] did it give?
Its binding is “binds”.

From publication PMC11821933
